Experimental findings from PubChem BioAssay AID2685 (National Center for Advancing Translational Sciences (NCATS), 2010) are described below.

Usually AC50 stands for the concentration giving half of the maximal activity seen.

The other results are listed elsewhere or left out. The main result of the screen is listed elsewhere. These columns were measured beside it and carry no call. Most of these compounds were active or inconclusive in the main read-out, so they are no random draw. Potencies come from curve fits of mixed quality, noted in brackets.

This experiment can be described thus: qHTS Assay for Lipid Storage Modulators in Drosophila S3 Cells.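 As to cell number change: cells counted by Cell Tracker Red CMTPX staining in the red channel.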 The note with it: BODIPY lipid droplet fluorescence, 18-24 h; for cell number change: measured here: cell count max response, cells fed with added oleic acid. The method, boiled down:
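Drosophila S3 cells got compounds at several concentrations plus oleic acid (400 uM solution). Laser-scanning cytometry with 488 nm excitation read lipid droplets at 500-530 nm and cells at 575-640 nm. Percent activity was relative to 20 uM Triacsin C.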
For orientation: qHTS replaces the single test concentration by a dilution series.

Setting [1] is: measured here: cell number channel AC50, cells fed with added oleic acid.
Where [2] appears, read: measured here: lipid fluorescence (Fed channel) AC50, cells fed with added oleic acid.

In the case of `COc1ccc(CCn2c(N)c(C(=O)NCc3ccco3)c3nc4ccccc4nc32)cc1OC`, the cell number change is -78.5%. The AC50 under setting [1] is 20.6 µM [falling, partial curve]. In addition, the concentration at half-maximal activity (AC50) under setting [2] is 16.4 µM [falling, single point].

With `O=C(C1=C[C@@H](C2CC2)C[C@@H](OCCCCO)O1)N1CCOCC1`, the cell number change was -3.31%. The half-maximal activity concentration (AC50) under setting [2] is 29.1 µM [falling, single point].

Take `CCOc1ccc(S(=O)(=O)N(CC(=O)NCC(F)(F)F)Cc2ccco2)cc1`: the cell number change turned out to be 2.96%. For the same molecule, under setting [2], the AC50 was 1.46 µM [falling, full curve, poor fit].

For the molecule `COc1cc(CC(=O)NC2CCCc3ccccc32)cc(OC)c1OC` (stereo not given), the concentration at half-maximal activity (AC50) under setting [1] was 0.461 µM [falling, partial curve].

`Cc1cc(C=O)c(C)n1-c1cc(C(F)(F)F)ccc1N1CCOCC1`: the cell number change is -20.3%. Under setting [2], the concentration at half-maximal activity (AC50) is 0.58 µM [rising, single point].

As for `FC(F)(F)c1cccc(-c2ccc(/C=N/Nc3nncc(-c4ccccc4)n3)o2)c1`, the cell number change is -26%. In addition, under setting [2], the half-maximal activity concentration (AC50) was 0.461 µM [falling, full curve, poor fit].

Turning to `CN(C)S(=O)(=O)c1ccc(N2CCCC2)c(C(=O)NNC(=O)COc2ccccc2F)c1`, the AC50 under setting [2] is 6.51 µM [rising, single point].

As to `O=C(O)c1c2c(nc3ccc(S(=O)(=O)N4CCC(C(=O)N5CCCCC5)CC4)cc13)CCCC2`, the cell number change was 8.91%. The AC50 under setting [2] was 29.1 µM [falling, single point].

As to `O=C(Cn1nc(C(F)(F)F)c2c1CCCC2)NCc1ccco1`, the cell number change is 3.45%. For the same molecule, the half-maximal activity concentration (AC50) under setting [2] was 1.16 µM [falling, full curve, poor fit].

As for `CCc1noc(C)c1C(=O)Nc1ccc(S(=O)(=O)N2CCC(C)CC2)cc1`, the cell number change was found to be 32.6%. In addition, the AC50 under setting [1] is 13 µM [rising, partial curve, poor fit]. For the same molecule, under setting [2], the AC50 was 11.6 µM [rising, partial curve].

With `COc1cc(C(=O)NCCSc2ccc(Cl)cc2)cc(OC)c1OC`, the cell number change turned out to be 21.8%. Further, the AC50 under setting [2] is 20.6 µM [rising, partial curve, poor fit].

Regarding `CCOC(=O)c1c(C)[nH]c(C(=O)N/N=C\c2ccccc2O)c1C`, the cell number change was -21.8%. The concentration at half-maximal activity (AC50) under setting [2] is 18.4 µM [falling, partial curve].

For the molecule `COc1cc(C)ccc1OCCOc1c(C)cc(Cl)cc1Cl`, the cell number change was found to be 23.7%. The half-maximal activity concentration (AC50) under setting [2] was 13 µM [rising, partial curve].

With `CCCCCCCCCCCCN1C/C(=C\C(=O)OCC)c2cc(C(F)(F)F)ccc2S1(=O)=O`, the cell number change was 6.89%. Further, the AC50 under setting [2] is 3.66 µM [rising, full curve].

Consider `O=C1CC(N2CCCN(C3CC(=O)N(c4ccc(F)cc4)C3=O)CC2)C(=O)N1c1ccc(F)cc1` (stereo not given), for which the cell number change was -9.66%. Further, the concentration at half-maximal activity (AC50) under setting [2] was 25.9 µM [falling, partial curve, poor fit].
